This is one part of the list. Further columns of the screen follow, without active or inactive calls. Most of these compounds were active or inconclusive in the main read-out, so they are no random draw. The note in brackets gives the kind of curve behind each potency; many fits are weak.
Assay: qHTS Assay to Find Inhibitors of Chronic Active B-Cell Receptor Signaling
Settings: ABC-DLBCL IkBa-CBG/CBR reporter, luminescence ratio (green luciferase fused to IkBa over red control in TMD8 lymphoma cells), 4 h
Summary of the method: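 Cell line TMD8 (human ABC DLBCL), stably expressing tet-inducible CBG68-IkBa fusion and CBR; IMDM/0.5% FBS; cpd up to 46 uM; dox induction, 4 h, 37C/5% CO2; dual luminescence; green/red ratio; MG132 control.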

[1] = measured here: CBR red luminescence, cell number
[2] = measured here: IkBa-CBG green luminescence

Row | SMILES | AC50 [1] | AC50 [2]
1 | CCN(CC(=O)Nc1c(F)cccc1F)C(=O)CCc1ccc(OC)cc1 | 20 µM [falling, partial curve, poor fit] | 
2 | COc1cc(C)ccc1OCCOc1c(Cl)cc(Cl)cc1Cl | 14.1 µM [rising, partial curve, poor fit] | 
3 | Cc1ccc(C(=O)C2CCN(C(=S)NCC3CCCO3)CC2)cc1 (configuration not stated) | 11.2 µM [rising, partial curve, poor fit] | 
4 | O=[N+]([O-])c1ccc(O)c(/C=N/Nc2ncnc3c2cnn3-c2ccccc2)c1 | 0.398 µM [falling, full curve, poor fit] | 
5 | O=C(Nc1ccc(Nc2ccccc2)cc1)c1ccccc1F | 17.8 µM [falling, single point] | 
6 | COC(=O)CN1C(=O)N/C(=C/c2cc3c(cc2OC)OCO3)C1=O | 0.562 µM [falling, full curve, poor fit] | 
7 | CSCCNC(=O)c1ccc(OC2CCN(S(=O)(=O)N(C)C)CC2)cc1 | 3.98 µM [rising, full curve, poor fit] | 
8 | Cc1nnc(NC(=O)c2oc3ccccc3c2C)s1 | 0.0891 µM [rising, full curve, poor fit] | 
9 | Cc1ccc(NC(=O)c2ccc(N/N=C/c3cccc(O)c3)c([N+](=O)[O-])c2)cc1 | 0.224 µM [falling, full curve] | 
10 | Cc1cc(C(=O)N/N=C/c2ccc(O)c([N+](=O)[O-])c2)c(C)n1-c1ccc(F)cc1 | 7.31 µM [falling, partial curve, poor fit] | 
11 | CCOC(=O)CCC(=O)Nc1ncnc2c1C(c1ccccc1)c1c(ccc3ccccc13)O2 (configuration not stated) | 29.1 µM [falling, single point] | 
12 | Cn1cc([N+](=O)[O-])c(C(=O)Nc2nc(-c3ccc(Cl)cc3)cs2)n1 | 3.26 µM [falling, partial curve] | 
13 | CCCNc1ncnc2c1cnn2-c1ccc(OC)cc1 | 11.2 µM [falling, single point] | 
14 | CCc1c(C#N)c(SCCC(=O)Nc2ccc(OC)cc2)nc2c1C(=O)CC(C)(C)C2 | 20.6 µM [falling, partial curve, poor fit] | 
15 | CC(=O)c1sc(NC(=O)CCS(=O)(=O)c2ccc(Cl)cc2)nc1C | 2.31 µM [falling, full curve, poor fit] | 
16 | COc1ccccc1CNC(=O)C(=O)NCC(c1cccs1)S(=O)(=O)c1ccc(F)cc1 (configuration not stated) | 10 µM [falling, partial curve] | 
17 | O=C(NCCc1ccccc1)C(=O)NCC1OCCN1S(=O)(=O)c1ccccc1 (configuration not stated) | 1.41 µM [rising, partial curve, poor fit] | 
18 | COc1cc(CNCc2ccccn2)ccc1OCc1c(Cl)cccc1Cl | 14.1 µM [falling, partial curve] | 
19 | CCCCCCOc1ccc(OC(=O)c2cccnc2)cc1 | 17.8 µM [rising, single point] | 
20 | O=C(N=C1c2ccccc2CN1c1ccccc1)c1cccc([N+](=O)[O-])c1 | 3.66 µM [rising, full curve, poor fit] | 
21 | FC(F)(F)c1ccc(-c2csc(-c3ccno3)n2)cc1 | 17.8 µM [rising, partial curve, poor fit] | 

Row | SMILES | AC50 [1] | AC50 [2]
22 | Cc1ccc(NC(=S)N2CCC(N(C)CC3CCCO3)CC2)c(C)c1 (configuration not stated) | 6.51 µM [falling, single point] | 
23 | COc1ccc2[nH]c(=O)c(CN(C(=O)c3cccnc3)c3ccccc3)cc2c1 | 29.1 µM [falling, single point] | 
24 | COC(=O)c1nnn(CC(=O)Nc2cccc(Cl)c2C)c1C(=O)OC | 2.06 µM [falling, single point] | 
25 | CCOC(=O)c1c(-c2ccccc2)[nH]c2ccc(O)cc12 | 29.1 µM [falling, single point] | 
26 | O=C1NC(c2ccc(-c3ccccc3[N+](=O)[O-])o2)C(C(=O)c2ccc(F)cc2)C(O)(C(F)(F)F)N1 (configuration not stated) | 16.4 µM [falling, partial curve] | 
27 | O=C(CCl)Nc1ccc(S(=O)(=O)Nc2nccs2)cc1 | 35.5 µM [falling, partial curve, poor fit] | 
28 | Brc1ccc(-c2nc(-c3ccccc3)no2)o1 | 2.91 µM [rising, single point] | 
29 | Oc1ccc(Cl)cc1CNCc1ccc(Cl)nc1 | 29.1 µM [rising, single point] | 
30 | CC(NS(=O)(=O)c1ccc(OCC(=O)Nc2cccc([N+](=O)[O-])c2)cc1)c1ccccc1 (configuration not stated) | 8.2 µM [falling, partial curve, poor fit] | 
31 | Cc1ccc(SCC(=O)Nc2cc(C)on2)cc1 | 6.51 µM [rising, single point] | 
32 | Cc1cc(=O)c2cc(C(=O)c3ccccc3)ccc2[nH]1 | 35.5 µM [falling, single point] | 
33 | O=C(Nc1cc(C(F)(F)F)ccc1Cl)C(Sc1nnc(-c2cccs2)o1)c1ccccc1 (configuration not stated) |  | 23.1 µM [rising, partial curve, poor fit]
34 | O=C(Nc1ccc(Nc2ccncc2)cc1)c1ccc([N+](=O)[O-])cc1 | 7.08 µM [falling, partial curve, poor fit] | 
35 | c1csc(-c2nnc(COc3ccc4c(c3)OCO4)o2)c1 | 11.2 µM [falling, partial curve] | 
36 | CC(C)=N/N=C(/c1ccc([N+](=O)[O-])cc1)C12CN3CN(CN(C3)C1)C2 | 2 µM [rising, partial curve] | 
37 | COc1ccc2sc(C)[n+](C)c2c1 | 20 µM [falling, partial curve, poor fit] | 
38 | CCN(CC)CCCN(C(=O)Cn1nnc(-c2ccc(OC)c(OC)c2)n1)C(C(=O)NC(C)(C)C)c1ccc(F)cc1 (configuration not stated) | 35.5 µM [falling, single point] | 
39 | CN(CC(=O)NCc1ccc(Cl)cc1)S(=O)(=O)c1cccc2cccnc12 | 0.411 µM [falling, full curve] | 
40 | Cc1nnc(NC(=O)C2CCCN2S(=O)(=O)c2ccc(Cl)cc2)s1 (configuration not stated) | 3.98 µM [rising, single point] | 5.62 µM [falling, single point]
41 | C/C(=N/NC(=O)c1cc(-c2ccc(Br)s2)[nH]n1)c1ccco1 | 22.4 µM [rising, single point] | 35.5 µM [falling, single point]
42 | COc1ccc2oc(C(F)(F)C(F)F)cc(=O)c2c1 | 35.5 µM [rising, single point] | 

Compounds from the list above with bromine:
Row | SMILES | AC50 [1] | AC50 [2]
28 | Brc1ccc(-c2nc(-c3ccccc3)no2)o1 | 2.91 µM [rising, single point] | 
41 | C/C(=N/NC(=O)c1cc(-c2ccc(Br)s2)[nH]n1)c1ccco1 | 22.4 µM [rising, single point] | 35.5 µM [falling, single point]

(list continues)

Row | SMILES | AC50 [1] | AC50 [2]
43 | CCn1c(CCNC(=O)c2cccs2)nnc1SCC(=O)Nc1nc(-c2ccccc2)cs1 |  | 18.4 µM [rising, single point]
44 | Cc1nnc(NC(=O)c2nc(S(=O)(=O)Cc3ccccc3C)ncc2Cl)s1 | 1.41 µM [falling, full curve, poor fit] | 
45 | COc1ccc(N=N/C(=C\O)C(=O)c2ccco2)cc1 | 3.16 µM [rising, full curve, poor fit] | 17.8 µM [falling, partial curve]
46 | O=C(Nc1ccccc1C(=O)N/N=C/c1ccco1)c1ccc(Cl)cc1 | 2.59 µM [falling, full curve] | 
47 | O=C1CC(Cc2ccc(Cl)cc2)C(=O)N1c1ccccn1 (configuration not stated) | 29.1 µM [rising, single point] | 
48 | COc1ccc(N2CCN(C(=O)C(CCSC)N=C3NS(=O)(=O)c4ccccc43)CC2)cc1 (configuration not stated) | 4.61 µM [rising, single point] | 
49 | CCCCCOCC1CC(C/C(C)=N/Nc2nc(-c3ccccc3)cs2)C(=O)O1 (configuration not stated) | 2.51 µM [falling, full curve] | 
50 | c1cncc(CNc2ncnc3ccc(-c4ccc5c(c4)OCO5)cc23)c1 | 20.6 µM [falling, single point] | 
51 | COc1ccc2cc(CCC(C)=O)ccc2c1 | 0.501 µM [rising, full curve, poor fit] | 
52 | CCCCN(CC)C(=O)c1ccc(Cl)c(Cl)c1 | 6.51 µM [rising, full curve, poor fit] | 
53 | COc1ccc(-c2noc(C3CCCN(C(=O)CCc4ccccc4)C3)n2)cc1 (configuration not stated) | 2.06 µM [falling, partial curve, poor fit] | 
54 | Cc1ccc(CC(=O)Nc2nc3c(s2)CCCC3)cc1 | 0.411 µM [rising, full curve] | 
55 | O=C(O)c1ccc(COc2ccc3ccccc3c2)o1 | 2.51 µM [falling, partial curve] | 
56 | O=C(COC(=O)Cc1cccc(C(F)(F)F)c1)NCC1CCCO1 (configuration not stated) | 29.1 µM [falling, single point] | 
57 | COc1ccc(OC)c(NC(=O)CCN2CCN(c3ccccc3OC)CC2)c1 | 11.2 µM [rising, partial curve, poor fit] | 
58 | CCOC(=O)c1ccc(NC(=O)NCCc2ccccc2OC)cc1 | 0.447 µM [falling, full curve] | 
59 | Cn1c(=S)[nH]c2c(c1=O)C(C)(C)Cc1ccccc1-2 | 35.5 µM [falling, single point] | 10 µM [falling, partial curve]
60 | CC(=O)N(CCC(Cc1ccccc1)c1ccc2c(c1)OCO2)Cc1ccc(Cl)cc1 (configuration not stated) | 29.1 µM [falling, single point] | 20.6 µM [rising, partial curve, poor fit]
61 | CCSC1=N/C(=C\c2ccc3c(c2)OCO3)C(=O)S1 | 4.61 µM [rising, full curve, poor fit] | 
62 | COc1ccc(-c2nnc(-c3cc4ccccc4oc3=O)o2)cc1 | 0.651 µM [rising, full curve, poor fit] | 

Whole records, looked up by structure:
CCOC(=O)c1ccc(NC(=O)NCCc2ccccc2OC)cc1 in the list: AC50 [1]: 0.447 µM [falling, full curve]
CCCCN(CC)C(=O)c1ccc(Cl)c(Cl)c1 in the list: AC50 [1]: 6.51 µM [rising, full curve, poor fit]

— PubChem BioAssay AID493014 (National Center for Advancing Translational Sciences (NCATS), 2011)
